Article PMC4043117
These are yes or no findings as the source states them, for the method shown. In cells and extracts the contact can be indirect. Some binding calls cover weakened binding; strength is not graded here. Sequences can lack the tags named with a protein.

T1: Mis16-Myc (S. pombe) (UniProt O94244)
T1 sequence: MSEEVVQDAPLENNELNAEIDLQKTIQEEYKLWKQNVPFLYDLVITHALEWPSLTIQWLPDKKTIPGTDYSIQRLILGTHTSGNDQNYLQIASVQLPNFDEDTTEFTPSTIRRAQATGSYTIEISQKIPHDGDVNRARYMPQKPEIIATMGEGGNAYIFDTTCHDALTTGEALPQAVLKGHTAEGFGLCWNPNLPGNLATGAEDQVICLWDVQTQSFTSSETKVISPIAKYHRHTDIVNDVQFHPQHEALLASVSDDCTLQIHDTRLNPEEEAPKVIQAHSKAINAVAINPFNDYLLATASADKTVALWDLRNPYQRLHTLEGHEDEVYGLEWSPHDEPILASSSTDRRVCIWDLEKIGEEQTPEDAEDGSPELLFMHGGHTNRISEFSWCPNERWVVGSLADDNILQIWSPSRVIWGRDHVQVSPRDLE

T2: GST-Mis18 (S. pombe) (UniProt Q9P802)
T2 sequence: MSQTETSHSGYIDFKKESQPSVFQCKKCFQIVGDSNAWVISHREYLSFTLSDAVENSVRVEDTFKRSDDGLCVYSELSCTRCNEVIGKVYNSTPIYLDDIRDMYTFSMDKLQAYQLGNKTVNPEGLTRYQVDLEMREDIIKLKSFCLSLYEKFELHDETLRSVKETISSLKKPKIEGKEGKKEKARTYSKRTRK

B1: Hat1-HA (protein, UniProt Q9UTM7 1-378)
chain: MSAVDEWVHNANECIEIVQVNEKHEKDCQYHPSNTYAIFGDAEVIYGYKDLNVTITYECPLMVPKLEISYSERLAPDSGVEPTDIEGTLNTYLKDRSIKVEGNSFDVHSANSIHNYSFNGKTFKILQATVLEASEIMQHLQIFSLFFIEGGSFIDLNDPRWMVYLLYETTEDDYCLRGYCTVYKYYKWDKLIHDGIRARISQFVILPPFQHQGHGSQLYNAIVSTFLKNPKILDFTVEDASEAFDSLRDHCDYKRLLSMGIFSEPDFHPSLSRQWINSKIAETKLTQRQFSRCCELAFTTKLKKLSLLERKSVRLGIKERIFRQNLDVLLQLDKSERIEKIHNAYENQFDEYKQIVKKLPKLKEDSPRKRQKLAQSSS
B2: 6xHis-Mis16 (protein, UniProt O94244 1-430)
chain: T1 sequence

How the values were obtained:
Mis16-Myc (S. pombe) = biological target: T1, Mis16-Myc (S. pombe); experiment: co-IP; 2 g pulverized S. pombe cells expressing the epitope-tagged proteins; anti-GFP, anti-Myc or anti-HA antibody on Protein G Dynabeads; western analysis
GST-Mis18 (S. pombe) = biological target: T2, GST-Mis18 (S. pombe); experiment: pull-down; GST pulldown on glutathione agarose from lysates of E. coli co-expressing the two proteins; Coomassie-type stained gel

Binder | binding (Mis16-Myc (S. pombe)) | binding (GST-Mis18 (S. pombe))
B1 | binds | 
B2 |  | binds weakly
